Primary screen of a compound library

Measurements from “University of Dundee, Small-Polar-MMV Screening Library” (2021), ChEMBL document CHEMBL3988442.

Mtb growth Cornell: 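Whole-cell assay for inhibitors of Mycobacterium tuberculosis growth, labelled Cornell in the record; the read-out is not stated. The concentration is filed as 10 mM, unlikely as a test dose, so the dose is not known. The record gives no direction; compounds strong in two other growth screens of this library score well above the rest, so higher reads as stronger inhibition. About 53,000 compounds were tested under these conditions; 1.7% (about 900) showed 50% or more at least once.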
Mtb heat-shock: 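Assay on Mycobacterium tuberculosis, filed only as a heat shock assay from Cornell; the read-out is not stated. The concentration is filed as 10 mM, unlikely as a test dose, so the dose is not known. Direction is inferred from retests: higher values go with stronger inhibition. Of about 69,000 compounds tested this way, about 930 (1.4%) reached 50% or more in at least one test.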

The filed quantity is “Percent Effect” (%). The controls that fix the scale are not given in the record; negative values are as filed. This is an unselected part of the compounds tested. A dash means the value is not listed here; it may have been measured.

structure,Mtb growth Cornell,Mtb heat-shock
CS(=O)(=O)c1cc(Cl)cnc1C1CCN(C(=O)C2CC2)CC1,-2.038,4.639
Cc1noc(C)c1CN(C)CC(=O)/N=c1\cc[nH]n1C(C)C1CC1 (stereo not given),2.322,-21.76
Cc1cccc(N2CCN(C(=O)CCc3c(C)noc3Cl)CC2)c1,14.51,16.29
CCc1nc(CN(C)C2CCCN(c3cccnn3)C2)no1 (stereo not given),-27.22,-19.06
O=C(O)C(F)(F)F.[H][C@@]12CCN(Cc3ccc(C)o3)C[C@@]1([H])O[C@@H](C(=O)N1CCCO1)C2,-11.38,10.4
CC(C)[C@H](NS(C)(=O)=O)C(=O)NCc1cc(-c2ccco2)nn1C,-3.18,1.605
CCS(=O)(=O)N1CCCn2nnc(CNC(C)=O)c2C1,-21.29,35.86
CC1CCCN(CC(=O)N2CCC(c3ncc4c(n3)CCNC4)CC2)C1 (stereo not given),-,2.886
O=C(NS(=O)(=O)c1c(Cl)cccc1Cl)c1cccc2c1OCCO2,22.81,-8.631
O=C(O)C(F)(F)F.O=C(O)C(F)(F)F.c1cncc(COCc2nnc3n2CCN(CC2CC2)C3)c1,18.53,-18.09
CS(=O)(=O)N1CCN(C(=O)c2cc(-c3ccc(Br)s3)n[nH]2)CC1,29.57,9.433
C1CN(c2nc(C3CC3)ns2)CCO1,13.17,-26.32
CCC(C)N(CCOC)Cc1nc2c(cnn2C)c(=O)[nH]1 (stereo not given),-,-5.858
CN(C)Cc1cnc2n1CCN(C(=O)Cc1ccc(F)cc1)CC2.O=C(O)C(F)(F)F,27.05,-23.13
O=C(COc1ccccc1)N1CCC[C@]2(C[C@H](OCC3CC3)CO2)C1,18.98,-11.72
[H][C@]12CCN(S(=O)(=O)c3ccc(OC)cc3)[C@@]1([H])CC[C@@H](COC)O2,-12.02,-0.5623
c1ccc(NCc2ccc(Cn3ccnc3)cc2)nc1,22.91,-10.65
Cc1cc(NC(=O)Nc2ccc3c(ccn3CCN(C)C)c2)n(C)n1,-11.11,-4.377
CN(CCOc1cccc(F)c1)Cc1nc2c(cnn2C)c(=O)[nH]1,-11.27,-25.17
COC(=O)CC1CCN(C(=O)c2ccc(-n3nnnc3C)cc2)CC1,16.5,-1.548
CCc1ccccc1CNC(=O)CNC(=O)C(C)(C)C,-,13.4
Nc1nc(N2CCCC(COc3ccc(F)cc3)C2)c2nc[nH]c2n1 (stereo not given),22.57,-5.929
COc1ccc(F)cc1CN1CCCC1Cn1nc(C)nc1C (stereo not given),-,-2.674
O=C1N(Cc2cccc(F)c2)CCC12CCCNC2 (stereo not given),16.92,-0.708
N#Cc1ccnc(N2CCN(CC(O)c3cccc(F)c3)CC2)c1 (stereo not given),15.37,-19.55
CCOC(=O)C1(Cc2cccc(Cl)c2)CCCN(Cc2ncc[nH]2)C1 (stereo not given),6.626,-9.171
CNC(=O)COC1COC2(CCN(Cc3cccnc3)CC2)C1.O=C(O)C(F)(F)F (stereo not given),-0.8933,22.59
O=C1CC2(CCN(CC3CC3)CC2)CN1Cc1cc(F)cc(F)c1,5.234,6.689
COCCN1CCC(NCc2ccc(Cl)cc2)C1 (stereo not given),-,5.188
CCC1CN(C(=O)c2cnc(-c3ccccc3)s2)CCO1 (stereo not given),17.48,7.384
COc1ccc(CNC(=O)CCn2cc(C)cn2)cc1C,-7.851,-15.31
CC(C)C(=O)N1CCCC2(CC(C(=O)NCc3cccnc3)=NO2)C1.O=C(O)C(F)(F)F (stereo not given),18.8,-21.32
CN1CCN(C(=O)CCC(=O)c2cccs2)Cc2ccccc21,-37.75,-7.136
CCn1c(C2CCN(Cc3cc(C)n(NC(C)=O)c3C)CC2)n[nH]c1=O,-,-0.5524
COCCN1CCC(c2nc3c([nH]2)CCCNC3=O)CC1,-12.91,15.77
Cc1nnc(CN2CCCCC2c2nc(-c3ccccc3)no2)s1 (stereo not given),3.959,1.198
CC(=O)Nc1nc(C(=O)N2CCCCC2Cn2cc(C)cn2)cs1 (stereo not given),-,-2.047
CC(=O)N1CCN(C(=O)CCCc2nc(C(C)C)no2)CC1,-30.6,12.36
[H][C@]12CCCCN1CCC[C@@]2(O)CN(CC)Cc1noc(CC(C)C)n1,2.696,9.159
[H][C@]12C[C@H](C(=O)NC)N(C)[C@@]1([H])CN(C(=O)c1ccncc1F)C2,-24.18,13.98
CC(=O)N(C)CC(=O)Nc1cnc(-n2ccnc2C)nc1,-12.5,-14.52
O=C(C1CCC2(CCN(CC3CCOCC3)CC2)O1)N1CCCCO1.O=C(O)C(F)(F)F (stereo not given),-,16.52
COc1ccc(C)cc1NC(=O)c1c(C)cn(C)c1CC(=O)O,-,5.249
COC1CCN(C(=O)Nc2cc(C(F)(F)F)c[nH]c2=O)CC1,-,-3.989
[H][C@@]12CCCO[C@]1([H])[C@@H](OCC1CCOCC1)CN2C(=O)c1ccnnc1,-,-32.51
Cc1ccc(CN2CCc3c(nnn3C)C2COCc2ccccc2)s1.O=C(O)C(F)(F)F (stereo not given),18.33,-1.001
Cc1ccc(NC2(C(=O)NCCCN)CCCC2)cc1,-16.37,37.08
O=C(O)C(F)(F)F.O=C(O)C(F)(F)F.c1cncc(CN2CCCn3nnc(COCC4CC4)c3C2)c1,31.14,4.005

The first 6 entries again:

structure,Mtb growth Cornell,Mtb heat-shock
CS(=O)(=O)c1cc(Cl)cnc1C1CCN(C(=O)C2CC2)CC1,-2.038,4.639
Cc1noc(C)c1CN(C)CC(=O)/N=c1\cc[nH]n1C(C)C1CC1 (stereo not given),2.322,-21.76
Cc1cccc(N2CCN(C(=O)CCc3c(C)noc3Cl)CC2)c1,14.51,16.29
CCc1nc(CN(C)C2CCCN(c3cccnn3)C2)no1 (stereo not given),-27.22,-19.06
O=C(O)C(F)(F)F.[H][C@@]12CCN(Cc3ccc(C)o3)C[C@@]1([H])O[C@@H](C(=O)N1CCCO1)C2,-11.38,10.4
CC(C)[C@H](NS(C)(=O)=O)C(=O)NCc1cc(-c2ccco2)nn1C,-3.18,1.605